Measurements: US12383535B2, “Hydrogen peroxide-responsive KEAP1-NRF2 ppi inhibitor prodrug, and preparation method therefor” (CHINA PHARMACEUTICAL UNIVERSITY, priority 2019, dated 2025)
At least one compound was matched to its structure with a doubt left.

Legend:
[1] = system: Nrf2/ARE luciferase reporter in HepG2-ARE-C8 cells; assay: ARE-luciferase activity assay; assay type: cell-based; conditions: no LPS (physiological conditions)
Experimental: HepG2-ARE-C8 cells were plated in a 96-well plate at a density of 4×10^4 cells/well and incubated overnight. The cells were then incubated with different concentrations of the test compound, with DMSO as a negative control and a luciferase cell lysis agent as a blank control. After 12 h of treatment, the medium was removed and 100 μL of pre-cooled PBS was added to each well to wash the cells. PBS was then removed and 30 μL of the luciferase cell lysis agent was added. After 15 min of lysis on ice, the cells were harvested and centrifuged, and 20 μL of the supernatant was taken for luciferase activity assay according to the protocol provided by the manufacturer (Promega, Madison, WI). The luciferase activity was measured by Luminoskan Ascent (Thermo Scientific, USA). The assay was performed in triplicate and the inductivity fold was calculated by comparing with the control.

[2] = system: Nrf2-ARE in RAW264.7 cells; assay: ARE inductivity under LPS stimulation; assay type: cell-based, mouse; conditions: RAW264.7 cells stimulated with LPS prior to administration, compound 200 nM

For `COc1ccc(S(=O)(=O)Nc2ccc(N(CC(=O)O)S(=O)(=O)c3ccc(OC)cc3)c3ccccc23)cc1` [Compound 2, N-(4-((4-methoxyphenyl)sulfonamido)naphthalen-1-yl)-N-((4-methoxyphenyl)sulfonyl)glycine], the ARE inductivity [1] was “induce ARE activity in a concentration-dependent manner” and the “inductivity of Nrf2-ARE at different concentrations of LPS” value [2] was “no marked changes”.
